The record followed here is PubChem BioAssay AID330 (DTP/NCI, 2004).

This test deals with P388 leukemia ip, CD2F1 mice, survival T/C. In words: NCI In Vivo Anticancer Drug Screen. Data for tumor model P388 Leukemia (intraperitoneal) in CD2F1 (CDF1) mice. Conditions: T/C endpoint: median survival time, higher T/C = longer survival.
The mark [1] stands for this setting: dose: 100.0 mg/kg/injection, schedule: Q01DX005 (ip), vehicle: saline with Tween-80.
The mark [2] stands for this setting: dose: 200.0 mg/kg/injection, schedule: Q01DX005 (ip), vehicle: saline with Tween-80.
Where [3] appears, read: dose: 50.0 mg/kg/injection, schedule: Q01DX005 (ip), vehicle: Klucel (hydroxypropylcellulose) (HPC).
[4] abbreviates: dose: 100.0 mg/kg/injection, schedule: Q01DX005 (ip), vehicle: Klucel (hydroxypropylcellulose) (HPC).
Where [5] appears, read: dose: 200.0 mg/kg/injection, schedule: Q01DX005 (ip), vehicle: Klucel (hydroxypropylcellulose) (HPC).
Setting [6] is: dose: 60.0 mg/kg/injection, schedule: Q01DX005 (ip), vehicle: saline with Tween-80.
Setting [7] is: dose: 120.0 mg/kg/injection, schedule: Q01DX005 (ip), vehicle: saline with Tween-80.

The list shows only some results of the screen, not a fair sample: it is rich in T/C values a quarter to a half above the control, in often repeated tests (any T/C) and in doses without a T/C. Other doses and runs of a compound stand elsewhere. T/C gives the treated animals as a percentage of the vehicle group. Some doses have a count of surviving animals in place of a T/C: the source holds a T/C of zero for them, seemingly a mark for toxic or unscored doses. Some doses without a T/C left all or most animals alive at the check, yet need not have been tolerated: survival well below the control is almost never listed, so the zero probably covers shortened survival too. Survivors were counted at the toxicity check, usually on the fifth day, unless a day is given; later deaths do not show. Schedule codes are those of the source, taken here to give the interval after Q, in days (D) or hours (H), and the number of doses after X. For survival time, the PubChem record calls one and a half times the control and up active, and a quarter to a half above the control has no call in these data; cut-offs in other NCI protocols can differ. Some entries were tested several times; the values are given in rising order. Some T/C values carry the count of animals alive at the toxicity check (mostly the fifth day); without a count, all were alive then.

With `O=[N+]([O-])c1cccc(SNc2cccc(Cl)c2)c1`, the survivor count is, setting by setting: (dose: 100.0 mg/kg/injection, schedule: Q04DX003 (ip), vehicle: saline with Tween-80) 6 of 6; (dose: 400.0 mg/kg/injection, schedule: Q04DX003 (ip), vehicle: saline with Tween-80) 5 of 6.

Consider `COc1ccc2c3c(ccc2c1)CC1CCCN1C3` (centres undefined), for which, where the note is “dose: 200.0 mg/kg/injection, schedule: Q01DX005 (ip), vehicle: other”, the survivor count is 0 of 6.

On to `Cc1ccc(NCC2CCCN3CCCCC23)c2c(=O)c3cc(O)ccc3sc12` (centres undefined), for which the survivor count (dose: 400.0 mg/kg/injection, schedule: Q04DX002 (ip), vehicle: saline with Tween-80) was 3 of 6.

Turning to `COc1ccc(NC(=O)C2C(=O)N(c3ccc(OC)cc3)C(=O)/C2=N/NC(N)=S)cc1` (centres undefined), the survivor count by setting is: under setting [1], 0 of 6; under setting [2], 0 of 6.

For `CN(C)c1cccc2c(S(=O)(=O)NCCCCCCCCCCCCN)cccc12`, the survivor count (dose: 200.0 mg/kg/injection, schedule: Q01DX001 (ip), vehicle: saline + Tween-80 + alcohol) is listed as 6 of 6 and the survivor count (dose: 400.0 mg/kg/injection, schedule: Q01DX001 (ip), vehicle: saline + Tween-80 + alcohol) was 4 of 6.

As to `Cc1ccccc1C1N=C2Oc3ccccc3C=C2C(=O)N1` (centres undefined), the survivor count reads like this: (dose: 25.0 mg/kg/injection, schedule: Q01DX005 (ip), vehicle: Klucel (hydroxypropylcellulose) (HPC)) 2 of 6; under setting [3], 0 of 6; under setting [4], 0 of 6; under setting [5], 2 of 6. The T/C by setting is: (dose: 50.0 mg/kg/injection, schedule: Q01DX005 (ip), vehicle: Klucel (hydroxypropylcellulose) (HPC), evaluated on day 20) 94 and 100 % of control; (dose: 50.0 mg/kg/injection, schedule: Q01DX005 (ip), vehicle: Klucel (hydroxypropylcellulose) (HPC), evaluated on day 30) 97 % of control; (dose: 100.0 mg/kg/injection, schedule: Q01DX005 (ip), vehicle: Klucel (hydroxypropylcellulose) (HPC), evaluated on day 20) 102 and 122 % of control; (dose: 100.0 mg/kg/injection, schedule: Q01DX005 (ip), vehicle: Klucel (hydroxypropylcellulose) (HPC), evaluated on day 30) 129 % of control.

For the compound `COc1ccc(/C=N\NC(=O)CNC(=O)Nc2cccc([N+](=O)[O-])c2)cc1O`, the survivor count is 6 of 6 under setting [6] and 6 of 6 under setting [7].

`C[CH2][Sn]1([CH2]C)[O]C(=O)CCCCC(=O)[O]1`: the T/C by setting is: (dose: 25.0 mg/kg/injection, schedule: Q04DX003 (ip), vehicle: saline) 126 % of control; (dose: 50.0 mg/kg/injection, schedule: Q04DX003 (ip), vehicle: saline) 134 % of control; (dose: 100.0 mg/kg/injection, schedule: Q04DX003 (ip), vehicle: saline) 131 and 147 % of control. Further, the survivor count runs as follows: (dose: 200.0 mg/kg/injection, schedule: Q04DX003 (ip), vehicle: saline) 0 of 6; (dose: 400.0 mg/kg/injection, schedule: Q04DX003 (ip), vehicle: saline) 0 of 6.

As for `CC(=O)O[C@@H]1CO[C@H]2O[C@H]3[C@@H](C(C=O)=C[C@H](O)[C@@H]4C5=C(C(C)C)CC[C@]5(C)CC[C@@]34C)[C@@]2(O)C1=O`, the T/C (dose: 1.56 mg/kg/injection, schedule: Q01DX009 (ip), vehicle: Klucel (hydroxypropylcellulose) (HPC)) is 139 % of control. Moreover, the survivor count runs as follows: (dose: 12.5 mg/kg/injection, schedule: Q01DX009 (ip), vehicle: Klucel (hydroxypropylcellulose) (HPC)) 0 of 6; (dose: 25.0 mg/kg/injection, schedule: Q01DX009 (ip), vehicle: Klucel (hydroxypropylcellulose) (HPC)) 3 of 6; (dose: 50.0 mg/kg/injection, schedule: Q01DX009 (ip), vehicle: Klucel (hydroxypropylcellulose) (HPC)) 0 of 6.

For `CCCCCCCCCCCCCCCCOS(=O)(=O)O` (tested in a mixture with another compound), the survivor count (dose: 10.0 mg/kg/injection, schedule: Q01DX009 (ip), vehicle: saline with Tween-80) is listed as 6 of 6.

Consider `C/C(=N\NC(=S)N1CCCCCC1)c1nccnc1C`, for which the T/C is 130 % of control under setting [3] and 130 % of control under setting [4]. Also, the survivor count runs as follows: under setting [4], 1 of 6; under setting [5], 0 of 6.

On to `Cc1cc(C)c(C#N)c(NN)n1`, for which the survivor count is listed as 2 of 5 (dose: 25.0 mg/kg/injection, schedule: Q01DX005 (ip), vehicle: saline with Tween-80); 2 of 5 (dose: 50.0 mg/kg/injection, schedule: Q01DX005 (ip), vehicle: saline with Tween-80); 0 of 5 under setting [1]; 0 of 5 under setting [2].

Take `CCC(C)N(CCNc1cc(OC)cc2cccnc12)CC(C)C` (centres undefined): the survivor count reads like this: (dose: 100.0 mg/kg/injection, schedule: Q01DX005 (ip), vehicle: saline) 4 of 5; (dose: 200.0 mg/kg/injection, schedule: Q01DX005 (ip), vehicle: saline) 0 of 5.

For `O=c1[nH]c2c(=O)[nH][nH]c(=O)c2[nH]c1=O`, the survivor count runs as follows: under setting [7], 1 of 6; (dose: 240.0 mg/kg/injection, schedule: Q01DX005 (ip), vehicle: saline with Tween-80) 0 of 6.

`CC[N+]1(CC)c2ccccc2CC1C` (centres undefined): the survivor count is reported as 0 of 6 (dose: 100.0 mg/kg/injection, schedule: Q01DX001 (ip), vehicle: saline); 0 of 6 (dose: 200.0 mg/kg/injection, schedule: Q01DX001 (ip), vehicle: saline); 0 of 6 (dose: 400.0 mg/kg/injection, schedule: Q01DX001 (ip), vehicle: saline).

On to `COc1cccc(/C=N/NC(=O)CNC(=O)Nc2cccc([N+](=O)[O-])c2)c1OC`, for which, under setting [6], the survivor count is given as 5 of 6.

`COc1cc2c(c(OC)c1OC)-c1ccc(OC)c(=O)cc1[C@@H](NC(=O)CF)CC2`: the T/C is, setting by setting: (dose: 46.8 micrograms/kg/injection, schedule: Q01DX009 (ip), vehicle: saline) 140 % of control; (dose: 62.5 micrograms/kg/injection, schedule: Q04DX003 (ip), vehicle: saline) 145 % of control; (dose: 125.0 micrograms/kg/injection, schedule: Q04DX003 (ip), vehicle: saline) 140 % of control. For the same compound, the survivor count (dose: 750.0 micrograms/kg/injection, schedule: Q01DX009 (ip), vehicle: saline) is reported as 6 of 6 and the survivor count (dose: 1000.0 micrograms/kg/injection, schedule: Q04DX003 (ip), vehicle: saline) was 6 of 6.

For the compound `CCC(=O)N(C)C(C)C(=O)OC1CC(=O)N(C)c2cc(cc(OC)c2Cl)CC(C)CCCC(OC)C2(O)CC(OC(=O)N2)C(C)C2OC12C` (centres undefined), the survivor count (dose: 25.0 micrograms/kg/injection, schedule: Q01DX009 (ip), vehicle: saline + alcohol) is recorded as 6 of 6.

In the case of `CCCCCCCC(=O)N/N=C/c1ccc(O)c(OCC)c1`, the survivor count under setting [2] is reported as 5 of 5.

Take `C=COC(=O)N(C)C`: the T/C is 127 % of control [5 of 6 alive] (dose: 100.0 mg/kg/injection, schedule: Q01DX009 (ip), vehicle: saline) and 137 % of control [5 of 6 alive] (dose: 200.0 mg/kg/injection, schedule: Q01DX009 (ip), vehicle: saline). For the same compound, the survivor count (dose: 400.0 mg/kg/injection, schedule: Q01DX009 (ip), vehicle: saline) is 0 of 6.
